Measurements: PubChem BioAssay AID743238 (Broad Institute, 2013)
“And” between values parts separate entries of the source, which are not always exact repeats. Equal values may be shown once. Out of some 360,000 compounds screened, about 200 (0.056%) were called active. Inconclusive means that the source gave no clear call. Such entries were picked first, then a sample of the others.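 How the source made its calls: active means mean normalized replicate activation at least 10% and every replicate at or above 10%; inconclusive means only one of the two criteria met; inactive means mean below 10% and not all replicates reach 10%.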

Experiment: activators of inactive X chromosome reactivation, primary screen, imaging, XiGFP fibroblasts, GFP high-content imaging, set 2 (AID 743238);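 further: 0% = median of on-plate neutral control wells and 100% = ellipticine 6 µM median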
Conditions: XiGFP mouse fibroblasts, % GFP-positive cells imaging, 3 d; at 7.58 µM; active compounds read high; cells co-treated with 5-aza-dC sensitizer; scaled so ellipticine positive control = 100%
How it was run: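 System: XiGFP fibroblasts, SV40-immortalized. Medium: DMEM plus 5-aza-dC sensitizer. Doses: single point. Timing: 3 d treatment, 15 min room-temperature fixation. Control set: ellipticine 6 µM.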

SMILES	activation
CN(C(=O)/C=C/c1ccccc1)C1CCCCC1	inactive: -0.0355%
CCOc1ccc(NC(=O)/C(C#N)=C/c2ccc(N3CCCC3)c(C)c2)cc1	inactive: 2.23%
O=C(O)CSc1ncccn1	active: 53.5%
Cc1ccc(-c2csc(NC(=O)c3cccc([N+](=O)[O-])c3C(=O)O)n2)cc1	inconclusive: 14%
CN(C)C(=O)CN1CCN(Cc2nc(CC3CC3)no2)CC1	inconclusive: 45.2%
N/C(=N\c1nc(CSc2nc3ccccc3s2)cc(=O)[nH]1)Nc1ccc(F)cc1	active: 34.9%
Cc1cccc2cc3c(N)c(C(=O)N4CCCc5ccccc54)sc3nc12	active: 39.9%
Cc1cccc(-c2cccc3[nH]c4c(c23)CCN2C(=O)[C@H]3[C@H](C)ON(C)[C@H]3C[C@@H]42)c1	active: 48.1%
COc1cccc(CNC(=O)c2cc(S(=O)(=O)N3CCCC3)cn2C)c1	inconclusive: 15.1%
COc1cccc(NC(=O)N(C)C[C@@H]2Oc3cc(Br)ccc3S(=O)(=O)N([C@@H](C)CO)C[C@H]2C)c1	inconclusive: 10.5%
C[C@@H]1CN([C@H](C)CO)C(=O)c2cccc(NS(C)(=O)=O)c2O[C@@H]1CN(C)CC1CC1	inactive: 0.011%
COc1ccccc1/C=C/c1nc2ccccc2c(=O)o1	inactive: 0.0735%
CCCN1C[C@@H](C)[C@H](OC)CN(C)C(=O)c2ccc(NC(=O)Nc3c(C)noc3C)cc2OC[C@@H]1C	inactive: -0.083%
CC(=O)Nc1ccc(S(=O)(=O)N2CCN(CC3CC4C=CC3C4)CC2)cc1 (stereo unspecified)	inactive: 0.214%
Cc1ccc(NC(=O)COc2ccc(-c3nnco3)cc2)cc1S(=O)(=O)N1CCOCC1	active: 23.1%
Nc1c(C(=O)c2ccccc2)sc2nsc(SCCN3CCCC3)c12	inconclusive: 13.6%
Cc1cccc(NC(=O)Cn2cnc3c(oc4nc5c(cc43)COC(C)(C)C5)c2=O)c1	inconclusive: 20.4%
Cc1ccc(S(=O)(=O)N(C)C[C@H]2Oc3ccc(NC(=O)Nc4ccccc4)cc3CC(=O)N([C@H](C)CO)C[C@@H]2C)cc1	active: 23.3%
C[C@H](CO)N1C[C@H](C)[C@@H](CN(C)S(=O)(=O)c2cn(C)cn2)Oc2ccc(NC(=O)c3ccncc3)cc2CC1=O	inactive: -0.025%
O=[N+]([O-])c1ccccc1COc1ccc(Cl)c2cccnc12	inactive: 0.0955%
CCN(CC)c1ccc(/C=C(/C#N)C(=O)NCc2ccccc2)o1	inconclusive: 21.5%
C[C@@H]1CN([C@@H](C)CO)C(=O)c2cccc(NC(=O)c3ccncc3)c2O[C@H]1CN(C)C	inactive: 0.308%
CC1(C)CCN2CCC(C)(C)c3c(O)ccc1c32	active: 80.1%
CN(CC(=O)Nc1ccc(Cl)c(Cl)c1)CC(=O)Nc1ccc2c(c1)OCO2	active: 120%
COc1ccc(C2C(=O)c3ccccc3C2=Nc2ccc(Br)cc2)cc1 (stereo unspecified)	inconclusive: 16%
Cc1ccccc1NC(=O)CN1C(=O)S/C(=C\c2ccc(-c3cc(C(=O)O)ccc3C)o2)C1=O	active: 40.1%

Random excerpt: 4 entries already listed, in no set order.
SMILES	activation
O=[N+]([O-])c1ccccc1COc1ccc(Cl)c2cccnc12	inactive: 0.0955%
C[C@@H]1CN([C@H](C)CO)C(=O)c2cccc(NS(C)(=O)=O)c2O[C@@H]1CN(C)CC1CC1	inactive: 0.011%
Cc1cccc(NC(=O)Cn2cnc3c(oc4nc5c(cc43)COC(C)(C)C5)c2=O)c1	inconclusive: 20.4%
COc1ccccc1/C=C/c1nc2ccccc2c(=O)o1	inactive: 0.0735%

(listing goes on)

SMILES	activation
CCc1ccc(/C=C2/SC(N3CCOCC3)=NC2=O)cc1	inactive: -0.0135%
COC(=O)c1ccc(-n2c(C)cc(C(=O)COC(=O)C3=COCCO3)c2C)cc1	inconclusive: 44.4%
CC1CN(c2nnc(-c3ccccc3)c3ccccc23)CC(C)O1 (stereo unspecified)	inconclusive: 22.6%
Cc1ccc(C(=O)NCc2ccccn2)cc1NC1=NC2CS(=O)(=O)CC2S1 (stereo unspecified)	active: 22.4%
COC(=O)c1ccc(NC(=O)c2nc(S(=O)(=O)Cc3cccc(C)c3)ncc2Cl)cc1	inconclusive: 12.9%
CCCNC(=O)Nc1ccc2c(c1)C(=O)N(C)C[C@H](OC)[C@@H](C)CN(Cc1ccc(-c3ccccn3)cc1)[C@@H](C)CO2	inactive: -0.55%
O=C(Nc1cccc(S(=O)(=O)NC2=NCCC2)c1)C1CC(=O)N(c2ccc3c(c2)OCCO3)C1 (stereo unspecified)	inconclusive: 31.4%
CCOc1ccc(N2C(=O)CC(Sc3nc(O)c(CC)c(=O)[nH]3)C2=O)cc1 (stereo unspecified)	inconclusive: 11.3%
CCc1ccccc1OCC(=O)Nc1ccc(N2CCCC2)cc1C	active: 37.5%
C[C@H](CO)N1C[C@H](C)[C@H](CN(C)C(=O)Nc2ccc(F)cc2)Oc2ncc(C#Cc3cccc(F)c3)cc2C1=O	inconclusive: 10.7%
CC(/C=C/C=C/c1ccccc1)=N/NC(=O)CNc1ccccc1C	inactive: 0.062%
CC(=O)N/C(N)=N/c1nc(=O)c2ccccc2s1	inconclusive: 17.1%
Nc1ccc(-c2nc3ccccc3[nH]2)cc1	inconclusive: 12.7%
CC(=O)c1ccc(NS(=O)(=O)c2ccc(N/C=C/C(=O)c3ccc(F)cc3)cc2)cc1	inconclusive: 14.8%
Cc1cccc(-c2ccc([C@@H]3[C@@H](CO)N4CCCCN(S(=O)(=O)c5ccccc5F)C[C@H]34)cc2)c1	inconclusive: 17.9%
COc1ccccc1N(Cc1ccccc1)S(=O)(=O)c1cccc(C(=O)Nc2ccccn2)c1	inactive: 0.369%
COc1ccccc1NC(=S)N(CCCN1CCOCC1)Cc1cccs1	inconclusive: 26.9%
O=C(C[C@H]1CC[C@H]2[C@@H](COC[C@H](O)CN2Cc2cccc(C(F)(F)F)c2)O1)NCc1ccncc1	inactive: 1.13%
CC(=O)Nc1sc(/C(C#N)=C/c2ccc(Cl)c(Cl)c2)nc1-c1ccc(C)cc1	inconclusive: 17.8%
CNC[C@@H]1Oc2ncc(C#Cc3ccc(F)cc3)cc2C(=O)N([C@H](C)CO)C[C@@H]1C	inactive: 0.213%
COc1ccc(/C=N/Nc2ccccn2)cc1O	inactive: -0.112%
COc1c(C)cc(Br)cc1C(=O)Nc1ccccc1C	inactive: 0.21%
Cc1onc(-c2c(Cl)cccc2Cl)c1-c1nc2cc(Cl)ccc2c(=O)o1	inconclusive: 10.3%
C[n+]1c2cc(N)ccc2cc2ccc(N)cc21	active: 71% and active: 52.8%
COc1ccccc1-c1ccc2n(c1=O)C[C@H]1[C@H](CO)[C@@H](C(=O)NCc3ccccn3)[C@@H]2N1C	inactive: -0.076%
